Reference: patent US20190153113A1, “CD39 VASCULAR ISOFORM TARGETING AGENTS” (INNATE PHARMA, priority 2015, published 2019)
Numbering of substitutions follows the chain as printed. Numbers in names are those of the source. No constants are given. Whether binding was seen depends on the method and setting. Some results given as binding are weak or reduced against the parent protein; the word gives no strength. Where a sequence is shown, tags or fusion partners need not be part of it. Values belong to the binder of their own block, whether it stands above or below them.

Assays:
[1] = target: T1, CD39 mutant 13 (A403P, G404A, K406A, E407A) (human) (UniProt P49961); assay: flow cytometry, HEK293T cells transfected with mutant 13
T1 sequence: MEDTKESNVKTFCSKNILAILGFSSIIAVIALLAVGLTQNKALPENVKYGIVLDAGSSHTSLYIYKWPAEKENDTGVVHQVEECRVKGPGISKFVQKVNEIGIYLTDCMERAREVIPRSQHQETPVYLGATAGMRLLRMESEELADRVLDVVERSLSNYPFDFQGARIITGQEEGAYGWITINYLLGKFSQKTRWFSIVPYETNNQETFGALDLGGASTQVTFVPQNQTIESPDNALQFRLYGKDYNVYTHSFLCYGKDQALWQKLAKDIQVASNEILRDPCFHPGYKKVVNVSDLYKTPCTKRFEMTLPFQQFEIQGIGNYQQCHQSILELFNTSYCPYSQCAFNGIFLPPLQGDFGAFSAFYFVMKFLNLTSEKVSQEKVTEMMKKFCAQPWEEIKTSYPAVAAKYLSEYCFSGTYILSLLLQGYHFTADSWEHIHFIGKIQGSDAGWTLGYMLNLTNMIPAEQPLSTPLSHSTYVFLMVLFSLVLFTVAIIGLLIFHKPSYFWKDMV

[2] = target: T2, CD39 mutant 6 (K188R, replacement of the residues 190 to 206 by KTPGGS) (human) (UniProt P49961); assay: flow cytometry, HEK293T cells transfected with mutant 6
T2 sequence: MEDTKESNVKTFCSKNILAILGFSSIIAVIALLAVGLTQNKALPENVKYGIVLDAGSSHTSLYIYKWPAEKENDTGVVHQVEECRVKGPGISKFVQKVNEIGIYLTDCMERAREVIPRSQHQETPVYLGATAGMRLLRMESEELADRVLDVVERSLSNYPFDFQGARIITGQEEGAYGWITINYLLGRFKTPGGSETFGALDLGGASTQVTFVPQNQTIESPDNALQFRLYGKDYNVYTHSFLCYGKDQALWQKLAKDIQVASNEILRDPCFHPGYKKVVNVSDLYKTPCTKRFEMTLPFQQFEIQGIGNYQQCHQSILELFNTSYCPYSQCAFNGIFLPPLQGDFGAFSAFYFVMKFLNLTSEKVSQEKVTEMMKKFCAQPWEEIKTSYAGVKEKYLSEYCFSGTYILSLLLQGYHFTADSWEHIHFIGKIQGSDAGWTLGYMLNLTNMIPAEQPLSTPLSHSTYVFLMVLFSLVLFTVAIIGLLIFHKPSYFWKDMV

[3] = target: T3, Recombinant human CD39 protein (vascular isoform), soluble (human) (UniProt P49961); assay: ELISA on coated recombinant human CD39 (RechuCD39), HRP secondary antibody, TMB, OD 450 nm [top panel CHS2-I-391]
T3 sequence: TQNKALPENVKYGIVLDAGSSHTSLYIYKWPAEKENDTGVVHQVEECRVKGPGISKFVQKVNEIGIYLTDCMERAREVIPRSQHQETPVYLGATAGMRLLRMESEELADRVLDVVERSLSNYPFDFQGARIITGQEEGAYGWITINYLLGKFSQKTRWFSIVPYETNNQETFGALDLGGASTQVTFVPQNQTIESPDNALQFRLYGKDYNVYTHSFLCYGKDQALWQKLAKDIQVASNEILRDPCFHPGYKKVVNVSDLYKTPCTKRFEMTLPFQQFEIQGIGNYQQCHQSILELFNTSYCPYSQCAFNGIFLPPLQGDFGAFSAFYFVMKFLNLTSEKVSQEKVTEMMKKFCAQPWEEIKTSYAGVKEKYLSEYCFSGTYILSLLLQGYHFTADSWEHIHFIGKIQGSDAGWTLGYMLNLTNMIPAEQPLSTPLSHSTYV

[4] = target: T4, CD39 mutant 12 (K389N, Q393K, P394S, E397A) (human) (UniProt P49961); assay: flow cytometry, HEK293T cells transfected with mutant 12
T4 sequence: T1 sequence with K388N, Q392K, P393S, E396A, P402A, A403G, A405K, A406E

[5] = target: T3, Recombinant human CD39 protein (vascular isoform), soluble (human); assay: ELISA on coated recombinant human CD39, top panel of FIG. 2 (HUS2 format)
[6] = target: T5, CD39 mutant 9 (K287E, K288A, V289A, E314R) (human) (UniProt P49961); assay: flow cytometry, HEK293T cells transfected with mutant 9
T5 sequence: T1 sequence with K288E, K289A, V290A, E315R, P402A, A403G, A405K, A406E

[7] = target: T6, CD39 mutant 8 (S293A, K297G, K302A, E305A, T307K, Q311A) (human) (UniProt P49961); assay: flow cytometry, HEK293T cells transfected with mutant 8
T6 sequence: T1 sequence with S294A, K298G, K303A, E306A, T308K, Q312A, P402A, A403G, A405K, A406E

[8] = target: T7, CD39 mutant 10B (H429A, T431A, A432D, D433A) (human) (UniProt P49961); assay: flow cytometry, HEK293T cells transfected with mutant 10B
T7 sequence: T1 sequence with P402A, A403G, A405K, A406E, H428A, T430A, A431D, D432A

[9] = target: Cynomolgus CD39 expressed on HEK cells (cynomolgus); assay: flow cytometry on HEK cells expressing cynomolgus CD39
[10] = target: T3, Recombinant human CD39 protein (vascular isoform), soluble (human); assay: ELISA on coated recombinant human CD39, bottom panel of FIG. 2 (mouse IgG2a format)
[11] = target: T3, Recombinant human CD39 protein (vascular isoform), soluble (human); assay: ELISA on coated recombinant human CD39 (RechuCD39), HRP secondary antibody, TMB, OD 450 nm [bottom panel Mouse IgG2a I-391]

binding [1]: binds | binding [2]: binds | binding [3]: binds | binding [4]: binds | binding [5]: binds | binding [6]: binds | binding [7]: binds | binding [8]: binds | binding [9]: binds
B1: Antibody I-391, Fc silent recombinant chimeric human IgG1 with heavy chain N297Q mutation (antibody, V domains shown)
VH: QIQLVQSGPELKKPGETVKISCKASGYTFRNYGMNWVKQAPGKGLKWMGWINTYTGEPTYADDFKGRFAFSLATSASTAYLQISNLKNEDTATYFCARKAYYGSNYYFDYWGQGTTLTVSS
VL: DIVMTQSHKFMSTSVGDRVSITCKASQDVSTAVAWYQQKPGQSPKLLIYSASYRYTGVPDRFTGSGSGTDFTFTISTVQAEDLAVYYCQQHYTTPPYTFGGGTKLEIKR

binding [10]: binds | binding [11]: binds
B2: Antibody I-391 with Fc domain of mouse IgG2a isotype (MOGA) (antibody, V domains shown)
VH: B1 VH
VL: DIVMTQSHKFMSTSVGDRVSITCKASQDVSTAVAWYQQKPGQSPKLLIYSASYRYTGVPDRFTGSGSGTDFTFTISTVQAEDLAVYYCQQHYTTPPYTFGGGTKLEIK
